Results as given in patent US20110111980A1, “METHOD FOR PROFILING DRUG COMPOUNDS” (priority 2008, published 2011).

System: UT-SCC-9, UT-SCC-27, UT-SCC-54C, and UT-SCC-76
Experiment: PamChip kinase inhibition profiles of 4 patient derived head and neck squamous cell carcinoma cell lines
Type: biochemical
Details: selected set of peptides, FIG. 3b

With CN[C@@H]1C[C@H]2O[C@@](C)([C@@H]1OC)n1c3ccccc3c3c4c(c5c6ccccc6n2c5c31)C(=O)NC4 [Staurosporin] the “inhibition profiles (ratios of phosphorylation in the absence and presence of the inhibitor), differences between cell lines” value was “pronounced differences”.
